Source: patent US20160046678A1 (ZYNGENIA, published 2016)
These are yes or no findings as the source states them, for the method shown. Some entries that bind do so weakly or less than the wild type.

By UniProt entry, the sequences of proteins in these tests, tags left out. Residues count along the entry.
UniProt P21860, residues 20-643: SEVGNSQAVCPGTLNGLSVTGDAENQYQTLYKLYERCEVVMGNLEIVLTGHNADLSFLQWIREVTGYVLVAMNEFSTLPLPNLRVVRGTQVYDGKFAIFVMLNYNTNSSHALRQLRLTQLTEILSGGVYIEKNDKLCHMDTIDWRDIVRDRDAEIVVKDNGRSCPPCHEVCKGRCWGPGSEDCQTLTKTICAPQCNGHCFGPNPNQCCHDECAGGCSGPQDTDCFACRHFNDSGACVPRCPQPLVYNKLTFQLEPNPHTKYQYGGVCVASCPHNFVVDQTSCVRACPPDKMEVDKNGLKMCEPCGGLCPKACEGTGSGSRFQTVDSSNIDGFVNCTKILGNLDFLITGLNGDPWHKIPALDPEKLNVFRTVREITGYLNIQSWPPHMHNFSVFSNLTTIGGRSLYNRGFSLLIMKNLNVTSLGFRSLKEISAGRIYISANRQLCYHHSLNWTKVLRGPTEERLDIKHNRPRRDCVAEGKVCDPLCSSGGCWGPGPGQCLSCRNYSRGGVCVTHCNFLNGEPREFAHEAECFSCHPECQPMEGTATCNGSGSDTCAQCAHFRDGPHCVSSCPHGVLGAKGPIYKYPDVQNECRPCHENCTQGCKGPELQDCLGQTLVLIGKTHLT

These binders were tested against ErbB3 (UniProt P21860) (assay: MRD screen, Example 48).

binding, binds:
FPEPYCPFLNPHWKAQCLERL [EGC949], YREPYCPFLNPIWKEQCIART [EGC964], HSEPYCPFVNPTWYNECISRT [EGC965], SSEPYCPFLNPIWKEHCIART [EGC963], NSEPYCPFSNPTWKDECLIRS [EGC954], LIEPYCPFLNPHWKAECIARY [EGC945], MSDPYCPFLNPTWKAQCIART [EGC952], HNKTYCPFLNPTWKAQCIART [EGC956], RSEPYCPFLNPTWKDQCIARS [EGC962], VNEPYCPFLNPKWYAECLART [EGC967], STEPYCPFSNPTWKAQCIARI [EGC961], IGEPYCPFLNPTWKEECIRRT [EGC957], PREPYCPFLNPIWKDECIART [EGC951], SSEPYCPFLNPIWKAECIARA [EGC948], RSEPYCPFLNPIWKDQCIARS [EGC966], LREAYCPFINPIWKDQCMARI [EGC944], PSDPYCPFLNPSWKAECLART [EGC947], FREPYCPFLNPTWKQQCLARI [EGC950], LREPYCPFLNPTWKEQCIARY [EGC955], PGDPYCPFLNPIWKQECIVRN [EGC960], QNDPYCPFLNPIWKAQCIARS [EGC968], ISEPYCPFINPTWKAECIARS [EGC958], SSEPYCPFLNPYWKEQCIART [EGC969], SSEPYCPFINPMWKDQCLART [EGC946], TKAPYCPFKNPIWKAECIART [EGC959]
